System: Trastuzumab
Assay: SDS-PAGE analysis of cross-linking of fully reduced Tmab with linker compounds
Settings: fully reduced Tmab (4 equiv. TCEP), 2 equiv. linker, room temperature overnight, SDS-PAGE and protein MS

[N-]=[N+]=NCCOCCOCCOCCNC(=O)c1ccc(NC(=O)CI)c(NC(=O)CI)c1 [Compound 17, N,N′-(4-((2-(2-(2-(2-azidoethoxy)ethoxy)ethoxy)ethyl)carbamoyl)-1,2-phenylene)bis(2-iodoacetamide)]
regioselectivity of bridging (intra-HC vs HC-LC): greater preference to cross-link heavy-light disulfide bonds

— US20220249687A1, “BIS(2-HALOACETAMIDO)-COMPOUNDS FOR USE AS LINKING AGENTS AND RESULTANT PRODUCTS WHICH COMPRISE ANTIBODIES, HALF-ANTIBODIES AND ANTIBODY FRAGMENTS” (THE UNIVERSITY OF BATH, priority 2019, published 2022)
